# The supplement of paper PMC10849652
# Chains of the proteins cited; added tags and fusions are not shown. Lines headed by an entry give the natural chain unless they say otherwise; changes in a name come on top.
# UniProt Q9NXW2: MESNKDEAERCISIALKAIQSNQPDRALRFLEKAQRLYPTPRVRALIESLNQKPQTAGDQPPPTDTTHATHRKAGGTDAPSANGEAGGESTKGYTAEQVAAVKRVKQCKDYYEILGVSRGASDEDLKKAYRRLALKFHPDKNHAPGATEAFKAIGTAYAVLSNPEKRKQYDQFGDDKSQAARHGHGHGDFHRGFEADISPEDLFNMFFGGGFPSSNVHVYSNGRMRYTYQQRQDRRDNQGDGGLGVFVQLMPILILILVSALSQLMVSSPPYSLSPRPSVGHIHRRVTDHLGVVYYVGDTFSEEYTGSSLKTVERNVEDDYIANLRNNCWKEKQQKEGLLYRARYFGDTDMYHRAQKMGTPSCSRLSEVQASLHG
# UniProt Q8TDJ6, whole entry, looked up: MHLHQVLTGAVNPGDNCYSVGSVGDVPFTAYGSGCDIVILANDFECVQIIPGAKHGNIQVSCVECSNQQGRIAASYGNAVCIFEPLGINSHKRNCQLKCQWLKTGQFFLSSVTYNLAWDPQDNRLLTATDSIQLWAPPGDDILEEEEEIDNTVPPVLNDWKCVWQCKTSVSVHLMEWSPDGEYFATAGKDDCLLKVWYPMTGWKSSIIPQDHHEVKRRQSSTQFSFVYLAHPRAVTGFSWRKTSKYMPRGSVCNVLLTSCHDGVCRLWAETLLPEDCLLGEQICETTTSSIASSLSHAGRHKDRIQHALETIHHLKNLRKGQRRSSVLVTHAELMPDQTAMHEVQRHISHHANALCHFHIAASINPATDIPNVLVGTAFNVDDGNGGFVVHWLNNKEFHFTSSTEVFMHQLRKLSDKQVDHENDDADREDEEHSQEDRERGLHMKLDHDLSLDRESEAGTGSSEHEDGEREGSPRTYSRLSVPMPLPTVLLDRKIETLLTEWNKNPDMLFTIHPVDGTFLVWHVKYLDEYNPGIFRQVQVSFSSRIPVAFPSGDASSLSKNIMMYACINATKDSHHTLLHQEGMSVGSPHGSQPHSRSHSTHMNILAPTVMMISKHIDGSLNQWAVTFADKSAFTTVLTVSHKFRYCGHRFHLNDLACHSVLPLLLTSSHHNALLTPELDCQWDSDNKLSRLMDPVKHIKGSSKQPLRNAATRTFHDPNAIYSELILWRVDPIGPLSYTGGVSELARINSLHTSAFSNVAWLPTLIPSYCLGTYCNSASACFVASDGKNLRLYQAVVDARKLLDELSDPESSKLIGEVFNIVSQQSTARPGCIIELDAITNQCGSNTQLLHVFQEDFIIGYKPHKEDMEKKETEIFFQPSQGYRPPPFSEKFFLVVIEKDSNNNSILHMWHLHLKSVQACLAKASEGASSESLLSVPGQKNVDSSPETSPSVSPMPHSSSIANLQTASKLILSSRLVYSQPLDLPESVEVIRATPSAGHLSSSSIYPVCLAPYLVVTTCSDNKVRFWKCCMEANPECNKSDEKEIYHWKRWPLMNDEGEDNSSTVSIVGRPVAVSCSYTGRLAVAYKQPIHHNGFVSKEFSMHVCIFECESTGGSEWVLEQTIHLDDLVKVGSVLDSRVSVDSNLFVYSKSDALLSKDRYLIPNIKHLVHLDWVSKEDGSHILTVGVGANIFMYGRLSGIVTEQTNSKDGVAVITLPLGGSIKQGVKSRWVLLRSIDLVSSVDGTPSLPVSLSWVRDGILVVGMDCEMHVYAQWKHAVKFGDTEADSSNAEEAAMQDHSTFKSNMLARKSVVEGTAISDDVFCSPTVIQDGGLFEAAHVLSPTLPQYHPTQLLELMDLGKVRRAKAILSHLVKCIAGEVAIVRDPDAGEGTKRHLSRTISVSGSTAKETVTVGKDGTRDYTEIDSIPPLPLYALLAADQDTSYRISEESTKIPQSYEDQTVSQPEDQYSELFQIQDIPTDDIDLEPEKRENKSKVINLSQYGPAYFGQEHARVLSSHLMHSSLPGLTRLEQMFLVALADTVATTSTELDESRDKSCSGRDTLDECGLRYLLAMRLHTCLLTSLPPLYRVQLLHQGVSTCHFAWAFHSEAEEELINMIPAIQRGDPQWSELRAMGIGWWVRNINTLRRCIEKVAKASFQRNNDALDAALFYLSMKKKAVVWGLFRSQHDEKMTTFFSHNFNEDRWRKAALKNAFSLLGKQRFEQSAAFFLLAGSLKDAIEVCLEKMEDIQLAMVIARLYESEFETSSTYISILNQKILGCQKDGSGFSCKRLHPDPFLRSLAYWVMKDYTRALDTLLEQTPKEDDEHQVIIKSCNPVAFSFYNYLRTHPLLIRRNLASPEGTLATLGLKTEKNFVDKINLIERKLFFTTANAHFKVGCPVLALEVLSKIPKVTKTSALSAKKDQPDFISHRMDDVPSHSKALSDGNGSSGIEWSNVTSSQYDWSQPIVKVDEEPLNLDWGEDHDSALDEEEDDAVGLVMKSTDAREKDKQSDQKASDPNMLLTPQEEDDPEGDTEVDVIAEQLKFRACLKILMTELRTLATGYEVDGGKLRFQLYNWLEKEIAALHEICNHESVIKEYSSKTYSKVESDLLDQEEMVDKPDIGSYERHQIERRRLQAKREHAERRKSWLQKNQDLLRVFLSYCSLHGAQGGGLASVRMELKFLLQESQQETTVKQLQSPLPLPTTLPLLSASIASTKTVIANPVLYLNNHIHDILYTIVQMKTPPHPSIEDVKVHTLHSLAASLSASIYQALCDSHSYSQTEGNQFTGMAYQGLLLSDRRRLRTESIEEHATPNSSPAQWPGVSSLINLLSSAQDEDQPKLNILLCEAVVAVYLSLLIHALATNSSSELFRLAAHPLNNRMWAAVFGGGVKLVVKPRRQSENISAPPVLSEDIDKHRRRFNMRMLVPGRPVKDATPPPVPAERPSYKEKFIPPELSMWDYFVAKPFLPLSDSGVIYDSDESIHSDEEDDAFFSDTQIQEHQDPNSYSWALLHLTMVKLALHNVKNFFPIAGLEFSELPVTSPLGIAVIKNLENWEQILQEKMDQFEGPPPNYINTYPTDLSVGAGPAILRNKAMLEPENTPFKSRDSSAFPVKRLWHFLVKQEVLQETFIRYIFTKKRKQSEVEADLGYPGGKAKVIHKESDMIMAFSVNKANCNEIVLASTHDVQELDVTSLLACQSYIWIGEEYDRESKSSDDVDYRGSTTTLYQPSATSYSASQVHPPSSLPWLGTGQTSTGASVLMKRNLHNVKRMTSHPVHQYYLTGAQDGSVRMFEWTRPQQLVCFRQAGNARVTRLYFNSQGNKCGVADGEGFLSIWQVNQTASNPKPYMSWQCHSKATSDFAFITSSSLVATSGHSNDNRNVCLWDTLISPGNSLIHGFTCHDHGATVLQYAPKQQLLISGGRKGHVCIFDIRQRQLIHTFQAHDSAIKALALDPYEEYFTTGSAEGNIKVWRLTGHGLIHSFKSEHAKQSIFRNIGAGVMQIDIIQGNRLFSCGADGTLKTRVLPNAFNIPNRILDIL
# UniProt O76075: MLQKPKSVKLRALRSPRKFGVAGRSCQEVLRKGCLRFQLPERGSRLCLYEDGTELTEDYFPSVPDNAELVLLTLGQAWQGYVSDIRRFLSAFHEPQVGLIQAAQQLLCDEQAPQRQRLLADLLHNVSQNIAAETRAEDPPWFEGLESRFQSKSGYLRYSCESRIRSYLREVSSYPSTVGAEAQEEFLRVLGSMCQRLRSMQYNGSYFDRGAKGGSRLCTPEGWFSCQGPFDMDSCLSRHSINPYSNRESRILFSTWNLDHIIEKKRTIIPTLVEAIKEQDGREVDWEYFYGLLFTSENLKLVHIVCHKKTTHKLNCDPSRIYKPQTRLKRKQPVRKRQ
# UniProt Q7L7V1: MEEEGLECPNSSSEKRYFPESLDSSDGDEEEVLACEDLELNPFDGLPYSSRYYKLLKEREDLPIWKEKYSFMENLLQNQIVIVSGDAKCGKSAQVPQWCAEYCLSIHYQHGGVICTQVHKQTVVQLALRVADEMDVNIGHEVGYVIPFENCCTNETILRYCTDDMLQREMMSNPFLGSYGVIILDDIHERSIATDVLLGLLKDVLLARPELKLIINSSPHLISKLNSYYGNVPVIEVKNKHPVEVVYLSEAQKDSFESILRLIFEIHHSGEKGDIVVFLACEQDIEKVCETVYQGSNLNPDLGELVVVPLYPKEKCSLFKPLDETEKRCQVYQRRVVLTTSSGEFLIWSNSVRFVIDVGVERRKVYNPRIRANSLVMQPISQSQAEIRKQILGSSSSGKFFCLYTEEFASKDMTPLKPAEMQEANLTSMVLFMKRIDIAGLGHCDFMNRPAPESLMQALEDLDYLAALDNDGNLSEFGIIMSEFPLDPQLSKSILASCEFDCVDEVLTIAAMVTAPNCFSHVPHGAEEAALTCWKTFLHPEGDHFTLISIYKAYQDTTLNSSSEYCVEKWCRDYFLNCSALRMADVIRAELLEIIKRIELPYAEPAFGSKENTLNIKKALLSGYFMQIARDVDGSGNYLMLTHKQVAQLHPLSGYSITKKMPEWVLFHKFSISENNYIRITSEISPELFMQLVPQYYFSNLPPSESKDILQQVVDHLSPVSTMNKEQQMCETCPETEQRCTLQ
# UniProt Q9NSV4, whole entry, looked up: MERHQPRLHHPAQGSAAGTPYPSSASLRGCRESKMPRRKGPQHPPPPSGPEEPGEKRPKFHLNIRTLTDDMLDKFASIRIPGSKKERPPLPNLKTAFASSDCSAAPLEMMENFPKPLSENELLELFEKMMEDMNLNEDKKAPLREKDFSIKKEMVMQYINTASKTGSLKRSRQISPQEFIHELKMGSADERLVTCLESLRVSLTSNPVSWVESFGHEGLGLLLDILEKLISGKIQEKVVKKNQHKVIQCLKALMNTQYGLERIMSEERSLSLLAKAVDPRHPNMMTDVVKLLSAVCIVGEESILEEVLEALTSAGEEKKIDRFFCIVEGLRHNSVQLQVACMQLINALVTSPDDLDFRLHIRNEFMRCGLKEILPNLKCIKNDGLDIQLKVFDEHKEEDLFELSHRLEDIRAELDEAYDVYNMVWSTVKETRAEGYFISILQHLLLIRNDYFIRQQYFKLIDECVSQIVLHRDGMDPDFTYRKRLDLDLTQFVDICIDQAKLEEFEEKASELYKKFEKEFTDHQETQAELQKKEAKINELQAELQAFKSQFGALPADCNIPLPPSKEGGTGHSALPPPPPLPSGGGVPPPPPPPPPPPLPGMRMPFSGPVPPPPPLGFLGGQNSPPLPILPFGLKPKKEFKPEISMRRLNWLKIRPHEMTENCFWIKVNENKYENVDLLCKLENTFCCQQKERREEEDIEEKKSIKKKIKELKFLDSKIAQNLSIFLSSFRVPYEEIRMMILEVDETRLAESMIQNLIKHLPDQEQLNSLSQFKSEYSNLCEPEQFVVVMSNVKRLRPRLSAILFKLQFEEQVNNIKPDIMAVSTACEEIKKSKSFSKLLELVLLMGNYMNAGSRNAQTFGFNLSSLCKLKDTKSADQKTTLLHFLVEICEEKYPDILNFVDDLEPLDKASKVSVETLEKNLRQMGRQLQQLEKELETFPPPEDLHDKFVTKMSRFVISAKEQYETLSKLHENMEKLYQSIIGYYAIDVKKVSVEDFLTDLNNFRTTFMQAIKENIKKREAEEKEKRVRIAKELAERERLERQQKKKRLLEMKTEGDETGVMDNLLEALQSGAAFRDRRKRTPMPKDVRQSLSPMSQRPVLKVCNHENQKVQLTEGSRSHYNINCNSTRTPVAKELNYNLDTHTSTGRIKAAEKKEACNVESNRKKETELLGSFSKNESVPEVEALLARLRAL
# The other results are listed elsewhere or left out.
# What was measured:
# Assay in all cases: log2 fold change, soluble protein after heating vs DMSO (PISA); higher = thermal stabilisation; K562 lysate, 10 uM; active = over 0.2 and 3.5 SD of the protein, either way, in both replicates (recomputed)
# [1] = compound: NCC(=O)Nc1ccc(-n2nc(C(F)(F)F)cc2-c2ccc3c(ccc4ccccc43)c2)cc1
# Procedure, shortened: (§1)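 Pellets of K562 cells were dounce-homogenised in PBS pH 7.4 with 1 mM MgCl2, and the crude extract was held at 1 mg/mL protein for a 30 min treatment with 10 μM compound. Aliquots were heated for 3 min over 48°C-58°C and pooled before NP-40 was added to 0.5% at 4°C. The supernatant from 21,000xg for 90 min was quantified by TMTpro 16plex LC-MS/MS with channel sums equalised. Values are reported from duplicates as log-two fold change in thermal stability relative to solvent controls.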
# vorinostat = compound: O=C(CCCCCCC(=O)Nc1ccccc1)NO [vorinostat]
# Procedure, shortened: as §1
# silmitasertib = compound: O=C(O)c1ccc2c(c1)nc(Nc1cccc(Cl)c1)c1ccncc12 [silmitasertib]
# Procedure, shortened: as §1
# [2] = compound: O=C1NC(=O)C(c2cnc3ccccn23)=C1c1cn2c3c(cc(F)cc13)CN(C(=O)N1CCCCC1)CC2
# Procedure, shortened: as §1
# entospletinib = compound: c1cn2cc(-c3ccc4cn[nH]c4c3)nc(Nc3ccc(N4CCOCC4)cc3)c2n1 [entospletinib]
# Procedure, shortened: as §1
Target,log2 fold change [1],log2 fold change (vorinostat),log2 fold change (silmitasertib),log2 fold change [2],log2 fold change (entospletinib)
DNAJB12 (UniProt Q9NXW2),inactive: 0.053,inactive: -0.112,inactive: -0.117,inactive: 0.047,inactive: 0.008
DMXL2 isoform 3 (UniProt Q8TDJ6),inactive: 0.031,inactive: -0.195,inactive: 0.086,inactive: -0.01,inactive: 0
DFFB (UniProt O76075),inactive: -0.003,active: 0.258,inactive: -0.025,inactive: 0.013,inactive: -0.011
DHX32 (UniProt Q7L7V1),inactive: -0.044,inactive: -0.351,inactive: 0.028,inactive: 0.097,inactive: -0.002
DIAPH3 (UniProt Q9NSV4),inactive: -0.047,active: -0.584,inactive: 0.067,inactive: -0.006,inactive: -0.017
DLGAP4 (UniProt Q9Y2H0),inactive: -0.013,inactive: 0.023,inactive: 0.017,inactive: 0.006,inactive: -0.011
